Results deposited as PubChem BioAssay AID1259284 (Sanger Institute, 2017)
Assay: 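Kinase genes needed for growth or acting with cancer drugs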 (primary screen). Cell system: SW48 human colorectal cancer cells. Reagent: siRNA pool against human genes. Conditions: anchor drug BYL719 at 1 µM, cetuximab at 5 µg/ml or trametinib at 10 nM, or DMSO vehicle alone. Measured: 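Viability scaled to non-targeting control pool, robust z-score from controls, and synergy scores for each drug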. Direction: robust z-score, no drug: higher = more cells survive knock-down; viability, no drug: higher = more viable cells; synergy with BYL719: higher = stronger combined killing with drug. Rule for the call: 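Called essential when the robust z-score of viability without drug falls below -3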. Calls: active = essential without drug; inactive = no change without drug.
This is an unselected part of 794 deposited reagents. 16 of them (2%) count as active. 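Calls concern knock-down without drug only; drug synergy was judged apart, with scores above 0.15 taken as synergy.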 A number with no mark means an inactive call. The numbers tell different reagents against one gene apart. No viability above 1 is reported: the scale is capped. Further read-outs or replicates are left out here. The record does not give: the amount of reagent, the time to read-out.

gene	reagent	robust z-score, no drug	viability, no drug (fraction of control)	synergy with BYL719
CSNK2B	1	0.426	1	-0.169
XYLB	1	-0.664	0.906	-0.0665
CDKL5	1	0.426	1	-0.225
GUCY2D	1	-5.42 (active)	0.499	-0.17
STK25	1	0.371	0.995	0.017
STAG2	1	0.426	1	-0.257
CDC7	1	-0.334	0.935	-0.0935
MUSK	1	-0.955	0.882	-0.0957
NUP107	1	-1.19	0.862	-0.175
VRK2	1	0.426	1	-0.141
DGKA	1	-2.3	0.766	-0.0227
STK4	1	0.426	1	-0.25
CLSPN	1	-0.638	0.909	-0.122
CDK15	1	0.426	1	-0.093
VRK3	1	0.426	1	-0.204
MAP3K15	1	0.426	1	-0.146
NUP62	1	0.426	1	-0.0154
ATP23	1	0.426	1	-0.195
IRAK2	1	0.426	1	-0.367
PACSIN1	1	0.426	1	-0.216
ACVR1	1	0.426	1	-0.284
STK32B	1	-2.2	0.775	-0.0237
WHR1	1	0.426	1	-0.168
PIK3R2	1	0.426	1	-0.107
KSR2	1	-2.76	0.727	-0.128
APC	1	0.426	1	-0.348
ACVR2A	1	0.426	1	-0.0556
TAF1	1	0.426	1	-0.167
BMPR1A	1	0.426	1	-0.218
CALM1	1	0.426	1	-0.0992
ILK	1	0.426	1	-0.232
ILK	2	0.426	1	-0.0966
NF1	1	0.426	1	-0.172
GRK2	1	0.426	1	-0.115
SGK2	1	0.0561	0.968	-0.113
HIPK3	1	0.426	1	-0.19
MAST3	1	0.426	1	-0.288
ACVR2B	1	0.426	1	-0.165
IKBKG	1	0.426	1	-0.00504
FGFR3	1	0.0211	0.965	-0.167
AKT3	1	0.0247	0.966	-0.017
PIKFYVE	1	0.426	1	-0.305
MAP3K5	1	0.426	1	-0.0376
CIT	1	-6.94 (active)	0.368	-0.0634
STK39	1	-1.13	0.866	-0.18
SMC1A	1	0.426	1	-0.0464
ASPM	1	0.426	1	-0.23
NEK11	1	-0.894	0.887	-0.273
SGK1	1	0.426	1	-0.277
GOLGA5	1	-0.0466	0.959	-0.263

Look-ups from above.
Value of IKBKG in “robust z-score, no drug”: 0.426
Under “robust z-score, no drug”, STK39 is entered as -1.13
STAG2, synergy with BYL719 → -0.257
Under “synergy with BYL719”, CDKL5 has -0.225
Under “synergy with BYL719”, CSNK2B is entered as -0.169
Under “synergy with BYL719”, ASPM has -0.23
